PubChem BioAssay AID1224826 | NIAID, 2016
The deposit covers about 17,000 reagents; below is a random part of them. Over the whole deposit, about 1,110 (6.6%) were called active. 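Active means lowered or raised reporter signal; replicate intensities are raw and not normalised per plate.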 Unmarked entries are inactive.

Purpose: 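Regulators of Tlr4 signalling leading to Tnf-alpha expression in macrophages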 (primary screen)
System: RAW264.7 G9 macrophages from mouse bearing reporters for p65 (GFP) and the Tnf promoter (mCherry)
Reagents: siRNA pool against mouse genes, 100 nM
Duration: 16 h of LPS stimulation, after 2 days of siRNA transfection
Conditions: bacterial lipopolysaccharide (Salmonella minnesota R595), 10 ng/ml
Detection: 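Nuclear mCherry signal of the Tnf promoter reporter measured by imaging after background removal, scaled to each plate median and turned into robust z-scores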
Direction: Tnf reporter robust z-score: higher = stronger Tnf promoter reporter signal after LPS; Tnf reporter intensity: higher = stronger Tnf promoter reporter signal
Rule for the call: 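Called active when robust z-score is at most -1.3, matching the median of the Tlr4 knock-down control, or over 3; control wells and wells with under 50 cells never active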
Calls: active = Tnf reporter clearly lowered or raised; inactive = no clear change in Tnf reporter

Target gene | Tnf reporter robust z-score | fewer than 50 cells in well | Tnf reporter intensity, replicate 1 | Tnf reporter intensity, replicate 2
Egr4 (early growth response 4) | 0.64 | enough cells in well | 272 | 287
Apoa4 (apolipoprotein A-IV) | 2.47 | enough cells in well | 295 | 325
Stkld1 (serine/threonine kinase-like domain containing 1) | -0.43 | enough cells in well | 150 | 150
Spo11 (SPO11 initiator of meiotic double stranded breaks) | 0.61 | enough cells in well | 359 | 239
Racgap1 (Rac GTPase-activating protein 1) | – | fewer than 50 cells per well; well left out of calls | 79.7 | 50.9
Erp29 (endoplasmic reticulum protein 29) | -0.27 | enough cells in well | 211 | 134
Or2a54 (olfactory receptor family 2 subfamily A member 54) | – | fewer than 50 cells per well; well left out of calls | 79 | 104
Tmem131l (transmembrane 131 like) | -2.03 (active) | enough cells in well | 65.4 | 42.9
Rps6kb2 (ribosomal protein S6 kinase B2) | 0.2 | enough cells in well | 217 | 165
Gjc1 (gap junction protein, gamma 1) | -1.08 | enough cells in well | 171 | 143
Frmpd3 (FERM and PDZ domain containing 3) | 0.46 | enough cells in well | 226 | 254
Sh3glb1 (SH3-domain GRB2-like B1 (endophilin)) | 3.38 (active) | enough cells in well | 210 | 223
Atp5mg (ATP synthase membrane subunit g) | 0.15 | enough cells in well | 192 | 161
Trim68 (tripartite motif-containing 68) | 0.89 | enough cells in well | 267 | 214
Map2k3os (mitogen-activated protein kinase kinase 3, opposite strand) | -0.65 | enough cells in well | 220 | 109
Ptp4a1 (protein tyrosine phosphatase 4a1) | -0.01 | enough cells in well | 264 | 176
Gpr151 (G protein-coupled receptor 151) | 0.04 | enough cells in well | 172 | 381
Sec14l4 (SEC14-like lipid binding 4) | 3.8 (active) | enough cells in well | 261 | 198

Next part, starting with the last 4 of the part before.
Target gene | Tnf reporter robust z-score | fewer than 50 cells in well | Tnf reporter intensity, replicate 1 | Tnf reporter intensity, replicate 2
Map2k3os (mitogen-activated protein kinase kinase 3, opposite strand) | -0.65 | enough cells in well | 220 | 109
Ptp4a1 (protein tyrosine phosphatase 4a1) | -0.01 | enough cells in well | 264 | 176
Gpr151 (G protein-coupled receptor 151) | 0.04 | enough cells in well | 172 | 381
Sec14l4 (SEC14-like lipid binding 4) | 3.8 (active) | enough cells in well | 261 | 198
Sall1 (spalt like transcription factor 1) | -0.16 | enough cells in well | 285 | 199
Rhbdl1 (rhomboid like 1) | -1.48 (active) | enough cells in well | 65.5 | 62.9
Slc8a2 | – | fewer than 50 cells per well; well left out of calls | 98 | 122
Agrp (agouti related neuropeptide) | 0.92 | enough cells in well | 197 | 248
Samd5 (sterile alpha motif domain containing 5) | -0.92 | enough cells in well | 144 | 69.3
Bbs7 (Bardet-Biedl syndrome 7) | 1.32 | enough cells in well | 205 | 240
Klf8 (Kruppel-like transcription factor 8) | 0.46 | enough cells in well | 176 | 190
Vmn1r230 (vomeronasal 1 receptor 230) | 0.37 | enough cells in well | 298 | 101
Fes (Fes proto-oncogene, tyrosine kinase) | 1.58 | enough cells in well | 315 | 229
Dnajb6 (DnaJ heat shock protein family (Hsp40) member B6) | 2.9 | enough cells in well | 372 | 226
Grm7 (glutamate receptor, metabotropic 7) | -0.5 | enough cells in well | 166 | 267
Zfp945 (zinc finger protein 945) | -0.89 | enough cells in well | 111 | 116
Adam26a (ADAM metallopeptidase domain 26A) | -0.69 | enough cells in well | 125 | 176
Plxnb3 (plexin B3) | -0.26 | enough cells in well | 222 | 178
Rbmx2 (RNA binding motif protein, X-linked 2) | – | fewer than 50 cells per well; well left out of calls | 184 | 78.4
P2ry13 (purinergic receptor P2Y, G-protein coupled 13) | -0.11 | enough cells in well | 210 | 279
Dync2li1 (dynein cytoplasmic 2 light intermediate chain 1) | – | fewer than 50 cells per well; well left out of calls | 185 | 44.3
Sdf2l1 (stromal cell-derived factor 2-like 1) | 0.94 | enough cells in well | 168 | 168
Bcl10 (B cell leukemia/lymphoma 10) | 2.04 | enough cells in well | 249 | 267
Hook1 (hook microtubule tethering protein 1) | -0.44 | enough cells in well | 176 | 163
Olfm2 (olfactomedin 2) | 0.75 | enough cells in well | 202 | 190
Gpr37 (G protein-coupled receptor 37) | 1.03 | enough cells in well | 236 | 492
